Laboratory results from publication PMC9636508.
No constants are given. Whether binding was seen depends on the method and setting. In cells and extracts the contact can be indirect. A yes stands for co-enrichment or nearness to the bait. Other partners may have been found.

Amino acid sequences for entries named in this document (tags omitted).
UniProt Q9UNF0: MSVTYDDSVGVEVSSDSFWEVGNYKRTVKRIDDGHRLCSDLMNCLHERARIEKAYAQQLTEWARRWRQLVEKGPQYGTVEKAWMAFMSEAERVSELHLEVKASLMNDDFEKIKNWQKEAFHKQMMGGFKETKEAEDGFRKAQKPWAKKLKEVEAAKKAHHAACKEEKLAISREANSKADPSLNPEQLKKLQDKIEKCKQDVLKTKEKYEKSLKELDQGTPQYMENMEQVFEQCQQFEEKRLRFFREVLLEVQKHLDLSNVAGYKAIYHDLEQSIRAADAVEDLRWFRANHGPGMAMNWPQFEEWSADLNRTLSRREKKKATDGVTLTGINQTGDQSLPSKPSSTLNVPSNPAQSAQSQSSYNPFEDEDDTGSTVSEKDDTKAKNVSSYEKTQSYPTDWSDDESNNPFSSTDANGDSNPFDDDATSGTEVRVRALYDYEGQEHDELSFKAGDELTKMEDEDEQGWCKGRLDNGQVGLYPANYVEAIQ
UniProt Q53SF7: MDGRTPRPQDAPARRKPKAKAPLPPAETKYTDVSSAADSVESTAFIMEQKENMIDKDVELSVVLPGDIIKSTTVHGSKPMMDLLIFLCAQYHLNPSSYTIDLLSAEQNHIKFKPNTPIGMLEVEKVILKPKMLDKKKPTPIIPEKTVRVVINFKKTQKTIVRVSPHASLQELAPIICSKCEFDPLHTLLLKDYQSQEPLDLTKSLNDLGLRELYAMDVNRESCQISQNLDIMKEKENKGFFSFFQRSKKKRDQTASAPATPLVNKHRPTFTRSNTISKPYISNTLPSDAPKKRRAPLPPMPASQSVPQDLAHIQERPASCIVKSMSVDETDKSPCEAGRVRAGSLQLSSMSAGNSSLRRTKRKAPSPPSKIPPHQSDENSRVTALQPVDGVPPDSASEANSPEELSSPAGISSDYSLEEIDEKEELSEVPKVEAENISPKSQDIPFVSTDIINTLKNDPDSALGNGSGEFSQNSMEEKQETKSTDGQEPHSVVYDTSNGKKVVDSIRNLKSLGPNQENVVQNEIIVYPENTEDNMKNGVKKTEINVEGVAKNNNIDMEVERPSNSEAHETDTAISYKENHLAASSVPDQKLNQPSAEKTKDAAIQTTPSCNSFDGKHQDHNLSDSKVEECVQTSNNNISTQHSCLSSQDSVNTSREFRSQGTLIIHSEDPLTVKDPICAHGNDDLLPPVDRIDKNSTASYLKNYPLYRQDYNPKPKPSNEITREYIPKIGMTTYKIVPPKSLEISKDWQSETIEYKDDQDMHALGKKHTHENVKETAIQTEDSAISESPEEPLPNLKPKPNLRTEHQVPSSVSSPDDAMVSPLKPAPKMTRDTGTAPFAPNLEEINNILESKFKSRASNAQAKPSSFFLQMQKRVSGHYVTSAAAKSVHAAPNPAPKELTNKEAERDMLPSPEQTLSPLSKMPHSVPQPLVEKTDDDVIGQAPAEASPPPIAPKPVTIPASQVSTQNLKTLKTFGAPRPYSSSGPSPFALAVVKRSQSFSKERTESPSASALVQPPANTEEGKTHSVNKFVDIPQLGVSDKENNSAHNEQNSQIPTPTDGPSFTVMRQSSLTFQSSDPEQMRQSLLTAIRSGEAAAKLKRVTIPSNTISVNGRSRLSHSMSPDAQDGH

Tests used:
[1] = target: PACSIN2, bait of the tandem affinity purification (UniProt Q9UNF0); assay: affinity purification with mass spectrometry; tandem affinity purification with PACSIN2 as bait; cells not told
[2] = target: Cobll1, bait of the tandem affinity purification (UniProt Q53SF7); assay: affinity purification with mass spectrometry; tandem affinity purification with Cobll1 as bait; cells not told

| Substance | binding [1] | binding [2] |
| --- | --- | --- |
| Cobll1, found with the PACSIN2 bait (from UniProt Q53SF7 1-1128) | binds | – |
| PACSIN2, found by mass spectrometry with the Cobll1 bait (from UniProt Q9UNF0 1-486) | – | binds |
